Reference: patent US20180362612A1
Results are given in words; binding and its absence hold for the method and conditions named. Some binding calls cover weakened binding; strength is not graded here.

How the values were obtained:
[1] = target: T1, AITR on AITR-overexpressed Jurkat cells (pcDNA3.1(+)/CD5L-AITR-TM-ECD) (human) (UniProt Q9Y5U5); test: flow cytometry on AITR-overexpressed Jurkat cells (FIG. 1B)
T1 sequence (looked up): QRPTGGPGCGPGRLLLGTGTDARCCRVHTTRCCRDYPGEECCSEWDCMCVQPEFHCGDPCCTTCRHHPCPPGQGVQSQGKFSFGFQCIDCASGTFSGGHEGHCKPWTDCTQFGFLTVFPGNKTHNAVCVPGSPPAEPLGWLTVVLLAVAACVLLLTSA

[2] = target: activation-inducible tumor necrosis factor receptor (AITR), endogenous on human T cells (human) (UniProt Q9Y5U5); test: flow cytometry on anti-CD3/IL-2-activated human CD4+ T cells
[3] = target: T1, AITR on AITR-overexpressed Jurkat cells (pcDNA3.1(+)/CD5L-AITR-TM-ECD) (human); test: flow cytometry, PE-conjugated antibody on AITR-overexpressed Jurkat cells (FIG. 1B)

- binding [1]: binds
- binding [3]: binds
B1: anti-AITR monoclonal antibody B62 (antibody, V domains shown)
VH: EVQLVQSGGGLVQPGGSLRLSCSASGFSFSSYAMHWVRQAPGKGLEYVSGISDNGGSTKYADSVKGRFTISRDNSQNTLYLQMSSLRSEDTAVYYCARGGPTYYDFWSGYYTDEDAFDIWGQGTLVTVSS
VL: EIVMTQSPSSLSASVGDRVTITCRASQSINNYLNWYQQKPGKAPKLLIYATSRLQSGVPSRFSGSGSGADLTLTISSLQPEDVATYYCQQSYSFPWTFGQGTKVEIK
- binding [2]: binds
